The supplement of paper PMC12067093, “Discovery and optimisation of a covalent ligand for TRIM25 and its application to targeted protein ubiquitination” (Chemical Science, 2025)
The other results are listed elsewhere or left out.

By UniProt entry, the sequences of proteins in these tests, tags left out. Where a name states a change or a piece, a line headed by the entry shows the natural chain unless it says otherwise.
UniProt P49023, whole entry, looked up: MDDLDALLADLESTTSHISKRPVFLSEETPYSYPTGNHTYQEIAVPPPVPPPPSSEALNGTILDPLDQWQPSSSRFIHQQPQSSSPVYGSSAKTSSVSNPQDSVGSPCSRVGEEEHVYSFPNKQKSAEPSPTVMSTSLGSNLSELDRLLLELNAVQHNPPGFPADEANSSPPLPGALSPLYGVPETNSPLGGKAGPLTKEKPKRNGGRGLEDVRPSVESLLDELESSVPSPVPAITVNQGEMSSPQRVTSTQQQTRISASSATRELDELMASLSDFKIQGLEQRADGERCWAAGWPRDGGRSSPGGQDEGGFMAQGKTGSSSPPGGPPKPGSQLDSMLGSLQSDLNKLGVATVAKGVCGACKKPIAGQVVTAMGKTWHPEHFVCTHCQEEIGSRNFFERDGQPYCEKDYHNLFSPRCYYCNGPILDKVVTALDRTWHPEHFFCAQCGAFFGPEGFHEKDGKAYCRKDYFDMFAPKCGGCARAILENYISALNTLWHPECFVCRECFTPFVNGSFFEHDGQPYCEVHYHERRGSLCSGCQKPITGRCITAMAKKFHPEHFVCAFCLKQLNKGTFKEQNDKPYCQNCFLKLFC
UniProt O60216: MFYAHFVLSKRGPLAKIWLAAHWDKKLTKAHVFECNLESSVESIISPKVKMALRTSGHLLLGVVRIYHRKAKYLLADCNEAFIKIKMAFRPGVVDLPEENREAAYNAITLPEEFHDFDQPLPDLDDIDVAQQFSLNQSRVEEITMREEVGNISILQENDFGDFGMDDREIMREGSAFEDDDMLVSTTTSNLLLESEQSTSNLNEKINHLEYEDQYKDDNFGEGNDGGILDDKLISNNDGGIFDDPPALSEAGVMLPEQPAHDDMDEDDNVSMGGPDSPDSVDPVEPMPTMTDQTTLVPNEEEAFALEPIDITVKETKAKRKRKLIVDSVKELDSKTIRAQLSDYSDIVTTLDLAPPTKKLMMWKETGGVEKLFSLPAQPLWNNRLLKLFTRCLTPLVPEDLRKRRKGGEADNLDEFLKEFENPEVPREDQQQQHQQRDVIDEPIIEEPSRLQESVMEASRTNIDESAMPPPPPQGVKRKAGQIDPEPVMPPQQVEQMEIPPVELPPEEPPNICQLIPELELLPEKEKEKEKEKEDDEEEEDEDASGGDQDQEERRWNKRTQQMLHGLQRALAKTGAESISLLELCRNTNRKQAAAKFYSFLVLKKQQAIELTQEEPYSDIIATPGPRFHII
UniProt O00391: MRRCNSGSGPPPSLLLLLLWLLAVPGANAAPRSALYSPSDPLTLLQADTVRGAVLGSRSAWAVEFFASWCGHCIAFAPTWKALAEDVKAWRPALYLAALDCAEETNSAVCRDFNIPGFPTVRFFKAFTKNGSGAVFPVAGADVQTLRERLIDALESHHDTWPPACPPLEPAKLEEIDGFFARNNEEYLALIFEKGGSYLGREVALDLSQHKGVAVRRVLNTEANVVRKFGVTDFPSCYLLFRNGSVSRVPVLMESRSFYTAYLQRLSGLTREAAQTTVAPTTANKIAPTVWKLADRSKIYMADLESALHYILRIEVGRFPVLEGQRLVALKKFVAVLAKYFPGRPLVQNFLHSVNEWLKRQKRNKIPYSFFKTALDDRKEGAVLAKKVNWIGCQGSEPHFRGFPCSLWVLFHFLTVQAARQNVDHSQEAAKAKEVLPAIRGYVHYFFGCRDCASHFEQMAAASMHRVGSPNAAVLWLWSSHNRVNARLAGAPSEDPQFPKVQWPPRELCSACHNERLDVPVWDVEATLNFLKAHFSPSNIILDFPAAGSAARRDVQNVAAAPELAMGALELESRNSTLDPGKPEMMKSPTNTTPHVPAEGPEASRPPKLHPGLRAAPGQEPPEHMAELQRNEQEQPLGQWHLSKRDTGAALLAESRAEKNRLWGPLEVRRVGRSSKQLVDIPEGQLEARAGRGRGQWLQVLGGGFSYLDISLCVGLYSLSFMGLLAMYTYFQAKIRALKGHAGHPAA
UniProt Q7Z7A4: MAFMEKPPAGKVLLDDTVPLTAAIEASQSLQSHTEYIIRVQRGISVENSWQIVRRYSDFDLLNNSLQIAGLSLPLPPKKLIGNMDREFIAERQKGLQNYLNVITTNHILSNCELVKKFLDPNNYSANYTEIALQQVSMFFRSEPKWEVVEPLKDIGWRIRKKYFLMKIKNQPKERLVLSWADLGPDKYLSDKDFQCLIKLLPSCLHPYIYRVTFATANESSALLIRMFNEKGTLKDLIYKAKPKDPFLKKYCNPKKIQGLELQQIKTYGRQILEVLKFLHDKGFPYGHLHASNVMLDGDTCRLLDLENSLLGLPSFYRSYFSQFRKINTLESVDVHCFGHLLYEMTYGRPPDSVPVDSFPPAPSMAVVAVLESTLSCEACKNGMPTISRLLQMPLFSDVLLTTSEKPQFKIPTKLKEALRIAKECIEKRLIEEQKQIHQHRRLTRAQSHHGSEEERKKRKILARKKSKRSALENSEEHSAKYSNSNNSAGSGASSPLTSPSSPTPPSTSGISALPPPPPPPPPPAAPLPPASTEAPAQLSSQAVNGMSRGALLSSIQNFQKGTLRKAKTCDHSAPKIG
UniProt Q6NUJ5: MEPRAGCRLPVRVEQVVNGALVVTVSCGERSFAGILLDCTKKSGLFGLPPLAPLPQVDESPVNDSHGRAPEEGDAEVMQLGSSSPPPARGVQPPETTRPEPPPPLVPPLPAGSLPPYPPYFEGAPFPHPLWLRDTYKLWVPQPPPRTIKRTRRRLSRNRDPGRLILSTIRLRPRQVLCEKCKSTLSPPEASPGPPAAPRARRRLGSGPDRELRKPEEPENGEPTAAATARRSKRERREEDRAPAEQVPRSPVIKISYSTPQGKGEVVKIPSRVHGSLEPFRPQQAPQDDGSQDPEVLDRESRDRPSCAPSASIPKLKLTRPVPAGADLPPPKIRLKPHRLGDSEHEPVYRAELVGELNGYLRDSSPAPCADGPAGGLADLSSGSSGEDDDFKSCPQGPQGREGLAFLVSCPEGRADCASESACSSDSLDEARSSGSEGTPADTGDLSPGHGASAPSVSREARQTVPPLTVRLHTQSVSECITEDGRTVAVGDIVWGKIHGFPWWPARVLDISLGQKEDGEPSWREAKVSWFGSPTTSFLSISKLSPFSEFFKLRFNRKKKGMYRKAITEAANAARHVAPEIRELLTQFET
UniProt P11216: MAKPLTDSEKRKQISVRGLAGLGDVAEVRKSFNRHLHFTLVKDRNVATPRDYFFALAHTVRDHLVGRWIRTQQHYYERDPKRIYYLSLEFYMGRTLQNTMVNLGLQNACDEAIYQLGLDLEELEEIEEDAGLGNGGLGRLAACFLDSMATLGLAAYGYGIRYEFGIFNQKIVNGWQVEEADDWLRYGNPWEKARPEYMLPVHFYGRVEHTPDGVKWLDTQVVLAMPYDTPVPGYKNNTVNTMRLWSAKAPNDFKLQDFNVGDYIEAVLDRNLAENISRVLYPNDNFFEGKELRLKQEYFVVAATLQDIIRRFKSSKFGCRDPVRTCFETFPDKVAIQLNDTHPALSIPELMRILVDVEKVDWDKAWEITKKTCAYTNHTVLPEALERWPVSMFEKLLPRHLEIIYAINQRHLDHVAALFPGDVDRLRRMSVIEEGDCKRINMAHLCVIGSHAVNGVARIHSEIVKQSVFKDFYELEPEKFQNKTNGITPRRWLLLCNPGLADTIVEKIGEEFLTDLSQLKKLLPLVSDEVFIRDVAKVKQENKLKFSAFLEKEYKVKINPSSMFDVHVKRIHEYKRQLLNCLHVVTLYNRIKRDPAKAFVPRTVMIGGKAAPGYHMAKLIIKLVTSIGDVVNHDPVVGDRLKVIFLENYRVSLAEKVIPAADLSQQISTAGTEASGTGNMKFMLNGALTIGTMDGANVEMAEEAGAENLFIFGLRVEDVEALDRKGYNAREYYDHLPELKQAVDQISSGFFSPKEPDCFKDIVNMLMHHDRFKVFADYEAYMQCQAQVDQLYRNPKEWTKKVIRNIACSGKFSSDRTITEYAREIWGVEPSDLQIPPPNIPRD
UniProt Q9BZE2: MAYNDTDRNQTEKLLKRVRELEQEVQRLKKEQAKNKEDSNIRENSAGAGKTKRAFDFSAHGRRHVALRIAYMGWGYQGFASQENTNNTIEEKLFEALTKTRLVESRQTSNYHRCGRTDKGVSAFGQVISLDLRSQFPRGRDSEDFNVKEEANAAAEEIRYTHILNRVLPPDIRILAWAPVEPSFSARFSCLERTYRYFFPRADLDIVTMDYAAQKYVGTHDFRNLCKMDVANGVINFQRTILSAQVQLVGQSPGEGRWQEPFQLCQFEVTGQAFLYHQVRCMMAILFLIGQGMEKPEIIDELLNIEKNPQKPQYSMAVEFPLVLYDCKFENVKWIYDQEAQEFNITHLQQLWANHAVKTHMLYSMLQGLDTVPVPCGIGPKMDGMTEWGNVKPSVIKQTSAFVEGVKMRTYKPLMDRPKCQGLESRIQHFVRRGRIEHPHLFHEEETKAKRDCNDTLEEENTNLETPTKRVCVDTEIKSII
UniProt Q9Y620: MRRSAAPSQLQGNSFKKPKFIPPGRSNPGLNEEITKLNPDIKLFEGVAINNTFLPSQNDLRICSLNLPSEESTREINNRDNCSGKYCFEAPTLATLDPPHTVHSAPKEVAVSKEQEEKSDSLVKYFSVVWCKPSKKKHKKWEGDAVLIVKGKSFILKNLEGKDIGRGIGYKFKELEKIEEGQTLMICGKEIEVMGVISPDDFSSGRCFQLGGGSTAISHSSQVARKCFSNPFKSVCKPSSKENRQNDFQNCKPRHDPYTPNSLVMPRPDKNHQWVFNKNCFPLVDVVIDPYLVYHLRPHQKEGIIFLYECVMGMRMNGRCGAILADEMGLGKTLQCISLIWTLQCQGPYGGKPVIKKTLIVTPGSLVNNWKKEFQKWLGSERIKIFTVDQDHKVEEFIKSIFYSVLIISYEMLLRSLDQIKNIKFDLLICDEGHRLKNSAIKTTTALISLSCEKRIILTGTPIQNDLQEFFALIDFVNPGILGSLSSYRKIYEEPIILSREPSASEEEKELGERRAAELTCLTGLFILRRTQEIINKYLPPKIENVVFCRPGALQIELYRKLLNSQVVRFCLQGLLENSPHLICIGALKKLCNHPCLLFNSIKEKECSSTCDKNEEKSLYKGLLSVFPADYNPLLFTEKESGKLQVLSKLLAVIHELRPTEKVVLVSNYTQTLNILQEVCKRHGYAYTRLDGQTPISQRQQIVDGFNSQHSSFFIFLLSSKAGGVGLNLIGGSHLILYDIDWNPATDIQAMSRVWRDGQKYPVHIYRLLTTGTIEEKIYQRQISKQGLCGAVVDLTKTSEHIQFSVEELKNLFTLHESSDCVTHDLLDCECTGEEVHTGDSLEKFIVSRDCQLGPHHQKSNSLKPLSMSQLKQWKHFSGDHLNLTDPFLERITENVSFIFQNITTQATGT
UniProt Q15269: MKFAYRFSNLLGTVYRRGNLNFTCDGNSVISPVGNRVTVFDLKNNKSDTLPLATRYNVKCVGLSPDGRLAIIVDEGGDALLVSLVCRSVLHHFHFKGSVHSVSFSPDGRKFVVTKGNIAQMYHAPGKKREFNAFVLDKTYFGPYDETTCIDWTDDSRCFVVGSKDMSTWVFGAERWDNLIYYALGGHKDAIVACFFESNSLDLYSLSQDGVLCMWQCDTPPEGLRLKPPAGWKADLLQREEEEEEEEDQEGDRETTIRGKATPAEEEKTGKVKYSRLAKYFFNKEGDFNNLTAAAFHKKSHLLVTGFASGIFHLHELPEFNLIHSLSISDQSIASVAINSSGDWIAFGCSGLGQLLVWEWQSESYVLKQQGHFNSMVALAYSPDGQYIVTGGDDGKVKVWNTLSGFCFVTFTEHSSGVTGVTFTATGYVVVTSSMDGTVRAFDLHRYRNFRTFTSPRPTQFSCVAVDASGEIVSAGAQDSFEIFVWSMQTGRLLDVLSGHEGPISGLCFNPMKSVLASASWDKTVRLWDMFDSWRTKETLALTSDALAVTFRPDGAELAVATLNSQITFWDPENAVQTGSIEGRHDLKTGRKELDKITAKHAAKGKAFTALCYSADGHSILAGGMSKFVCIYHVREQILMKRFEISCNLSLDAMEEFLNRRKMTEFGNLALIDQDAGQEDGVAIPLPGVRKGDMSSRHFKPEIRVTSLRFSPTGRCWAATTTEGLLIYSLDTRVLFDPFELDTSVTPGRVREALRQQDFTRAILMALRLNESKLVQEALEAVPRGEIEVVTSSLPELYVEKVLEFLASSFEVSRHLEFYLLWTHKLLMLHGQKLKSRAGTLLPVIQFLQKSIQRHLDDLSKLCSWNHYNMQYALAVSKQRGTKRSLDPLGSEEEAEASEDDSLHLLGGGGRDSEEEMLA
UniProt P51149, whole entry, looked up: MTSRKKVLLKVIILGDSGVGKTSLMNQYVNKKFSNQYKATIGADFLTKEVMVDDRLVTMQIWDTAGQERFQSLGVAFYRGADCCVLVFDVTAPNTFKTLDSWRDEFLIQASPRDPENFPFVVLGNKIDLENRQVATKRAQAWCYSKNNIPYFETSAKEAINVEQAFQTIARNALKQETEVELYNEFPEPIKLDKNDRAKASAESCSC

Compound: Cc1cc(ccc1-c1ccccc1)C(=O)N1CCCN(CC1)C(=O)CCl [compound 10]
Test: probe-labelled cysteine peptide fold change vs DMSO (competition) (log2 fold change); higher = less target engagement (more negative = stronger competition)
Settings: THP-1, incubation time: 4 h
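Further: competitive profiling in live THP-1 cells: cysteine peptides tagged with an iodoacetamide desthiobiotin (IA-DTB) probe, intensity after compound treatment relative to DMSO-treated cells.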

Target | probe-labelled cysteine peptide fold change (10 µM) | probe-labelled cysteine peptide fold change (50 µM)
PXN_P49023_387_TWHPEHFVCTHCQEEIGSR (UniProt P49023) | -0.0992 | -0.106
PXN_P49023_361_GVCGACK (UniProt P49023) | -0.0164 | -0.209
RAD21_O60216_392_CLTPLVPEDLR (UniProt O60216) | 0.12 | 0.15
QSOX1_O00391_101+110_AWRPALYLAALDCAEETNSAVCR (UniProt O00391) | 0.0391 | -0.115
PXK_Q7Z7A4_252_KYCNPK (UniProt Q7Z7A4) | -0.0663 | -0.0773
PWWP2B_Q6NUJ5_480_LHTQSVSECITEDGR (UniProt Q6NUJ5) | 0.0945 | 0.00287
PYGB_P11216_437_MSVIEEGDCKR (UniProt P11216) | -0.0823 | -0.244
PXN_P49023_443+446_TWHPEHFFCAQCGAFFGPEGFHEK (UniProt P49023) | 0.119 | -0.0963
RAE1_P78406_143_APNYSCVMTGSWDK (UniProt P78406) | 0.282 | 0.0431
PUS3_Q9BZE2_420_CQGLESR (UniProt Q9BZE2) | -0.377 | -0.224
RAD54B_Q9Y620_320_CGAILADEMGLGK (UniProt Q9Y620) | 0.0206 | -0.483
RACK1_P63244_207_TNHIGHTGYLNTVTVSPDGSLCASGGK (UniProt P63244) | 0.0693 | 0.0524
PWP2_Q15269_630_FVCIYHVR (UniProt Q15269) | -0.0238 | 0.592
RAD54B_Q9Y620_521_AAELTCLTGLFILR (UniProt Q9Y620) | 0.0559 | -0.603
RAB7A_P51149_84_GADCCVLVFDVTAPNTFK (UniProt P51149) | 0.0434 | -0.0092

A different layout for some results above:
RAD54B_Q9Y620_320_CGAILADEMGLGK (UniProt Q9Y620)
  probe-labelled cysteine peptide fold change (10 µM) = 0.0206
  probe-labelled cysteine peptide fold change (50 µM) = -0.483
RACK1_P63244_207_TNHIGHTGYLNTVTVSPDGSLCASGGK (UniProt P63244)
  probe-labelled cysteine peptide fold change (10 µM) = 0.0693
  probe-labelled cysteine peptide fold change (50 µM) = 0.0524
